The other results are listed elsewhere or left out.

The test concerns T1, CTL2-GFP (C. trachomatis L2/434/Bu, GFP-expressing).
T1 construct: L2/434/Bu, GFP-expressing
Set-up: species or system HeLa; Intracellular C. trachomatis growth in HeLa cells, bulk GFP fluorescence relative to DMSO. Conditions: bulk GFP, single well; 28.5 h, 10 µM; inhibitor.
`COCCNc1nc(-c2ccc(N3CCOCC3)cc2)ccc1C(=O)N1CCN(C)CC1` [CBK105943]: the “% of control remaining” value is reported as 109.957%.

Consider `CC1=NNC(=O)C1Cc1c(Cl)cccc1Cl` (stereo not shown) [CBK067754], for which the “% of control remaining” value came out at 100.728%.

Turning to `CCSc1nc(=O)c2c(n1C)NC(=O)CC2c1ccc(OC)cc1` (stereo not shown) [CBK307542], the “% of control remaining” value worked out at 122.644%.

Take `Cc1cc2ncc3c(n2n1)CC1CCC3N1C(=O)CCn1cccc1` (stereo not shown) [CBK283157]: the “% of control remaining” value amounted to 101.667%.

As for `COc1ccc(C(=O)N2Cc3ccccc3C2)c(OC)n1` [CBK200317], the “% of control remaining” value came to 116.863%.

Turning to `Cc1cc(-c2cn3cc(C(=O)NCCCCO)nc3c(=O)n2C)c(C)o1` [CBK307037], the “% of control remaining” value came to 95.0056%.

Take `CCN1CCN(Cc2c(O)ccc3c(=O)c(Oc4ccccc4Cl)c(C(F)(F)F)oc23)CC1` [CBK266627]: the “% of control remaining” value amounted to 138.25%.

As for `O=C(NCC(c1ccccc1)c1ccccc1)N1CCN(Cc2ccccc2)CC1` [CBK155651], the “% of control remaining” value was 143.125%.

Turning to `N#CCCN(C(=O)Nc1ccccc1Cl)C1CCCCC1` [CBK156366], the “% of control remaining” value is recorded as 119.922%.

Turning to `CS(=O)(=O)c1ccc(-c2nccnc2NCc2cccnc2)cc1` [CBK036977], the “% of control remaining” value is 103.606%.

Regarding `COc1ccc(Br)cc1S(=O)(=O)Nc1c(C(=O)Nc2ccc(F)cc2)[nH]c2ccccc12` [CBK050095], the “% of control remaining” value worked out at 112.202%.

`COc1ccc2cc(C(=O)NCCn3ccnc3C)n(C)c2c1` [CBK282544]: the “% of control remaining” value worked out at 127.171%.

Take `COc1ccc(OC)c(C2=NO[C@@](CC(=O)O)(C(=O)NC3CCCCC3)C2)c1` [CBK286672]: the “% of control remaining” value turned out to be 102.209%.

For `CC(C(=O)Nc1cccc(N2CCNCC2)c1)c1ccccc1` (stereo not shown) [CBK004770T], the “% of control remaining” value stood at 113.157%.

`O=C(O)c1cc(NC(=O)c2ccc3c(c2)C(=O)N(Cc2cccnc2)C3=O)cc(C(=O)O)c1` [CBK266761]: the “% of control remaining” value is listed as 94.5562%.

On to `O=C(O)C1CC=CCC1C(=O)NCc1ccncc1` (stereo not shown) [CBK265481], for which the “% of control remaining” value was found to be 131.088%.

As for `Cc1cc(C(F)(F)F)nc2c(OCCOc3nccnc3N3CCNCC3)cnn12` [CBK024195C], the “% of control remaining” value was found to be 118.594%.

In the case of `c1ccc(-c2nc3sc4c(ncn5cnnc45)c3c3c2CCC3)cc1` [CBK269566], the “% of control remaining” value was determined as 140.566%.

Take `O=C(c1ccc(-c2ccc(F)cc2)o1)N1C[C@H]2CC[C@](O)(c3ccc(F)cc3)[C@H]2C1` [CBK286415]: the “% of control remaining” value is on record as 17.3049%.

For the compound `COc1cc(-c2nccnc2NCc2ccc(OC(F)(F)F)cc2)cc(OC)c1OC` [CBK038063], the “% of control remaining” value came out at 98.5068%.

On to `CC(C)S(=O)(=O)N1C2CCC(C2)[C@@H]1COc1ccc(F)cc1` (stereo partly shown) [CBK285292], for which the “% of control remaining” value came out at 95.5783%.

Consider `O=C(O)c1cc(S(=O)(=O)N2CCOCC2)ccc1F` [CBK268398], for which the “% of control remaining” value turned out to be 88.5248%.

Take `CS(=O)(=O)c1ccc(-c2ccc(C(=O)N3CCN(C(=O)OCc4ccccc4)CC3)cn2)cc1` [CBK160189]: the “% of control remaining” value is on record as 89.4045%.

As to `CN1CCC(N2CCN(C(=O)NCCOc3ccccc3)CC2)CC1` [CBK156098], the “% of control remaining” value was 139.733%.

With `CCCc1[nH]nc(O)c1CCc1ccccc1` [CBK075083], the “% of control remaining” value is 130.198%.

Consider `Clc1ccc(-c2csc(NCc3ccco3)n2)cc1` [CBK058168], for which the “% of control remaining” value is reported as 117.668%.

For `CC(C)NC(=O)N[C@H]1CCN2C(=O)N(c3ccc(F)c(Cl)c3)C(=O)[C@@H]2C1` [CBK289540], the “% of control remaining” value came to 122.037%.

Turning to `Cc1c(F)cccc1CN1CCN(S(=O)(=O)c2ccc(C(=O)c3ccccc3)cc2)CC1` [CBK062929], the “% of control remaining” value worked out at 97.1133%.

With `Cn1c(=N)n(CC(=O)O)c2ccccc21` [CBK262926B], the “% of control remaining” value amounted to 100%.

Turning to `COc1cc(CNn2cnnc2S)ccc1OCC(=O)NC(C)(C)C` [CBK266429], the “% of control remaining” value was 81.5121%.

For the compound `Cc1noc(CN2CCN(CCc3ccc4c(c3)CCO4)CC2)n1` [CBK305208], the “% of control remaining” value worked out at 97.3158%.

On to `Cc1nccn1C(=O)NC1CCCCC1` [CBK019187], for which the “% of control remaining” value was 128.654%.

In the case of `COCc1ccc(-c2nccnc2NS(=O)(=O)c2c(C)noc2C)cc1` [CBK049656], the “% of control remaining” value came out at 84.039%.

On to `CN(C)CCCNC(=S)NCc1ccc(Cl)cc1` [CBK266910], for which the “% of control remaining” value was 201.51%.

Take `O=C(O)COc1ccc(NC(=O)CSCc2ccc(Cl)cc2Cl)cc1` [CBK131700]: the “% of control remaining” value was determined as 97.1417%.

For `CCNCc1cc2c(C)nn(-c3ccc(F)cc3)c2[nH]c1=O` [CBK283118], the “% of control remaining” value was 96.2426%.

As to `CC(O)CN1CCN(c2nc(-c3ccncc3)nc3c2CCC3)CC1` (stereo not shown) [CBK304971], the “% of control remaining” value came to 106.578%.

For the compound `COc1ccc2[nH]c3c(c2c1)CCOC31CCN(C(=O)Nc2ccc(C(C)C)cc2)CC1` [CBK047154], the “% of control remaining” value was 94.9006%.

As to `Cc1cc(C)c2c(c1)-c1c(ssc1=S)C(C)(C)N2C(=O)CSc1nnc[nH]1` [CBK263038], the “% of control remaining” value was 110.929%.

Regarding `COc1ccc2c(=O)c3c(oc2c1)C(=O)N(CCN(C)C)C3c1ccccn1` (stereo not shown) [CBK287781], the “% of control remaining” value is listed as 101.113%.

With `Cc1[nH]c2ccc(C(=O)N(Cc3ccccc3)C3CC3)cc2c1C` [CBK297913], the “% of control remaining” value was 101.738%.

In the case of `c1ccc2[nH]c(NCCN3CCOCC3)nc2c1` [CBK268791], the “% of control remaining” value was 163.907%.

With `Cc1ccc(OCc2ccc(Cl)s2)c(Br)c1` [CBK002840], the “% of control remaining” value amounted to 109.49%.

In the case of `COc1ccc(Cn2nc(NS(=O)(=O)c3cn(C)cn3)c3ccccc32)cc1` [CBK048143], the “% of control remaining” value is recorded as 118.421%.

In the case of `O=C(Nc1cc(N2CCNCC2)ncn1)c1cnc2ccccc2c1` [CBK004209T], the “% of control remaining” value came to 114.683%.

On to `O=C(NCCOc1ccc(F)cc1)c1cccs1` [CBK057930], for which the “% of control remaining” value came to 118.417%.

As for `COc1ccc(N(CC(=O)N2CCN(Cc3ccc4c(c3)OCO4)CC2)S(C)(=O)=O)cc1Cl` [CBK265258], the “% of control remaining” value was determined as 120.061%.

As to `CCN(CC)c1ccc(NC(=O)c2cc(-c3cccnc3)cnc2NCCN2CCOCC2)cc1` [CBK126566], the “% of control remaining” value turned out to be 99.4832%.

For the compound `C[S+]([O-])CCC(NS(=O)(=O)c1ccccc1)C(=O)O` (stereo not shown) [CBK268267], the “% of control remaining” value amounted to 103.196%.

`O=C(O)c1cccc(-n2c(S)nnc2-c2cnccn2)c1` [CBK269252]: the “% of control remaining” value turned out to be 121.703%.

Take `CCN(CC)c1ccc(NC(=O)c2cccc(OC)c2OC)c(C)c1` [CBK097801]: the “% of control remaining” value is 100%.

For the compound `Nc1nc(SCC(=O)NCCCO)nc2sc3c(c12)CCC3` [CBK264952], the “% of control remaining” value is on record as 111.383%.

For `C=CCn1c(C)c(CN2CCc3nc(C)[nH]c(=O)c3C2)c2ccccc21` [CBK282375], the “% of control remaining” value was 125.09%.

`CC(C)Nc1nc2ccccc2nc1SCCOc1ccccc1` [CBK103668]: the “% of control remaining” value came to 89.7517%.

Regarding `CC(C)(C)OC(=O)NCc1ccc(-c2cc(NC3CCCCC3)ncn2)cc1` [CBK090898], the “% of control remaining” value is on record as 156.754%.

Regarding `COc1cc(OC)nc(NC(=O)CN2CCN(c3ccc(F)cc3)CC2)n1` [CBK267259], the “% of control remaining” value is 164.391%.

In the case of `Cc1nc(CN2CCCN(C(=O)c3cccc(C#N)c3)CC2)cs1` [CBK305363], the “% of control remaining” value was 99.4161%.

Regarding `COc1cc(/C=C2/SC(=O)NC2=O)cc(I)c1O` [CBK100075], the “% of control remaining” value turned out to be 117.459%.

Take `COc1ccc(C(NC(=O)[C@H]2CCCN2C(=O)COc2ccccc2)c2ccccc2C)cn1` (stereo partly shown) [CBK076682]: the “% of control remaining” value amounted to 88.808%.

For the compound `O=C(CSc1nnc(C2CC2)[nH]1)Nc1ccc(SC(F)F)cc1` [CBK295302], the “% of control remaining” value is recorded as 137.779%.

As to `CCN1C(=O)CC(n2c(C)nc3ccccc32)C1=O` (stereo not shown) [CBK287847], the “% of control remaining” value is reported as 127.334%.

Take `CCc1nc2ccc(C(=O)N(C)C(C)C)cn2c1N(C)CCN1CCOCC1` [CBK146436]: the “% of control remaining” value turned out to be 142.696%.

As for `O=C1CCC(C(=O)N2CCN(S(=O)(=O)c3ccccc3Cl)CC2)N1` (stereo not shown) [CBK304561], the “% of control remaining” value was 99.8397%.

As for `Clc1ccc(CN2CCC(Oc3cncc(OCCN4CCOCC4)n3)C2)cc1` (stereo not shown) [CBK084480], the “% of control remaining” value came to 109.346%.

Turning to `Cc1ccc(N(CC(=O)NN=C2CCCCCCCCCCC2)S(=O)(=O)c2ccccc2)cc1` [CBK262192], the “% of control remaining” value came out at 110.159%.

Take `O=[N+]([O-])c1ccccc1CS(=O)(=O)Nc1ccc(-c2nnn[nH]2)cc1` [CBK155430]: the “% of control remaining” value came to 87.161%.

Turning to `COc1ccc2cc(Cn3nc(C(=O)O)c4ccccc4c3=O)c(Cl)nc2c1` [CBK295354], the “% of control remaining” value is 152.547%.

As for `CN1CCN(c2nc(-c3ccc4c(c3)CCC(=O)N4)cs2)CC1` [CBK304319C], the “% of control remaining” value came out at 114.721%.

As for `Cc1cc(S(=O)(=O)CC#N)c(C)cc1Cl` [CBK018672], the “% of control remaining” value is reported as 145.941%.

Take `CCNC(=O)N1CCN(CCCC(O)c2ccc(F)cc2)CC1` (stereo not shown) [CBK025001C]: the “% of control remaining” value amounted to 105.139%.

In the case of `O=C(C1CCCC1)N1CCC(c2cccc(Cc3ccccc3Cl)n2)CC1` [CBK286507], the “% of control remaining” value is on record as 91.4531%.

On to `COc1ccc(C(C)C)cc1S(=O)(=O)NCCN1CCOCC1` [CBK266538], for which the “% of control remaining” value came to 124.57%.

`CCn1cc(-c2cncn2CCn2nc(C)c(Cl)c2C)cn1` [CBK281708]: the “% of control remaining” value was 116.019%.

Turning to `CC(C)Nc1cncc(Sc2ccccc2N)n1` [CBK093726], the “% of control remaining” value worked out at 93.3897%.

For the compound `CN1CCC(N(CCO)CC2(c3ccc(Cl)cc3)CC2)CC1` [CBK282781], the “% of control remaining” value is reported as 95.2511%.

As for `N/C(CSc1cccc2c1CCCC2)=N\O` [CBK006787C], the “% of control remaining” value was found to be 142.751%.

For the compound `Clc1ccc(-c2nc(C3CCN(CCc4ccccc4)CC3)n3ccccc23)cc1` [CBK035316], the “% of control remaining” value was 100%.

For `COc1cc2c(cc1/C=C1/S/C(=N\c3ccccc3)N(CCCN3CCOCC3)C1=O)OCO2` [CBK265631], the “% of control remaining” value is reported as 100%.

`O=C(NCC1COc2ccccc2O1)c1cc(-c2ccc(Cl)cc2)cnc1N1CCOCC1` (stereo not shown) [CBK076286]: the “% of control remaining” value is recorded as 124.53%.
